In PubChem BioAssay AID540276 (National Center for Advancing Translational Sciences (NCATS), 2011):
In all, about 300,000 compounds went through this assay and about 5,400 (1.8%) were called active. Inconclusive results, whose numbers are uncertain, are shown with a selection of clear calls. Calls follow the shape of the full dose curve; tested in HEK293 cells. A potency beside an inconclusive call is a rough fit, not a confirmed value.
% is scaled to controls: 0 for no effect and ±100 for the full control effect; potency is read from the fitted curve at half-maximal effect.

Test: qHTS for inhibitors of binding or entry into cells for Marburg Virus
Details: Marburg virus pseudotyped entry inhibition, cell reporter; activity change, negative = inhibition: at 37.8 µM (top of the series) unless noted
With `O=C(O)C[C@H](NC(=O)COc1ccc(Cl)cc1Cl)C(=O)O` the “activity change, negative = inhibition” value was inactive: 0.535%.
In the case of `Fc1ccccc1C(c1nnnn1Cc1ccc2c(c1)OCO2)N1CCN(Cc2ccccc2)CC1` (centres undefined), the Potency was inconclusive: 11.2 µM [inhibitor, partial curve, poor fit].
With `COc1ccc(NC(=O)c2ccccc2NC(=O)COc2ccccc2)cc1` the “activity change, negative = inhibition” value was inactive: 5.8%.
For `CCOC(=O)CC1=CC(C)(CC(=O)OCC)C(C#N)(C#N)C(N)=C1C#N` (centres undefined), the “activity change, negative = inhibition” value was inactive: 0.328%.
With `COc1ccc2oc(=O)c(-c3csc(Nc4cccc(O)c4)n3)cc2c1` the Potency was inconclusive: 35.5 µM [inhibitor, single point].
In the case of `COc1cc(C2C(C#N)=C(N)N(Nc3ccccc3)C3=C2C(=O)CC(C)(C)C3)ccc1OCc1cccc(F)c1` (centres undefined), the Potency was active: 1.78 µM.
For `CCOC(=O)Cc1csc(N/N=C\c2cccc(Br)c2)n1`, the “activity change, negative = inhibition” value was inactive: -19.9%.
In the case of `Cc1ccc(C2c3c(oc4cc(C)c(C)cc4c3=O)C(=O)N2CCCN2CCOCC2)cc1` (centres undefined), the “activity change, negative = inhibition” value was inactive: -0.755%.
For `COc1ccc(-c2csc(NC(=O)c3ccc(N4C(=O)CCC4=O)cc3)n2)cc1OC`, the “activity change, negative = inhibition” value was inactive: 3.07% [at 46.1 µM].
For `COc1ccc(-n2c(C)nc3sc4c(c3c2=O)CCC4)cc1`, the “activity change, negative = inhibition” value was inactive: -9.76% [at 46.1 µM].
With `O=C(/C=C/c1ccccc1)Nc1cc(S(=O)(=O)N2CCOCC2)ccc1N1CCCC1` the Potency was inconclusive: 35.5 µM [inhibitor, single point].
With `O=C(c1ccc2c(c1)N(Cc1ccc(F)cc1)CCS2)N1CCN(c2ccccc2)CC1` the Potency was inconclusive: 25.1 µM [inhibitor, single point].
In the case of `CC(Sc1ccccn1)C(=O)Nc1ccc(S(N)(=O)=O)cc1` (centres undefined), the “activity change, negative = inhibition” value was inactive: -1.59%.
With `CC(C)c1nc(C#N)c(NCCCn2ccnc2)o1` the “activity change, negative = inhibition” value was inactive: 15.2%.
In the case of `O=C(c1ccccc1)N1CCN(C(=O)c2ccncc2)CC1`, the Potency was inconclusive: 6.51 µM [activator, single point].
With `COc1ccc(C(=O)Nc2ccc(C(=O)OCC(=O)c3cccc4ccccc34)cc2)cc1` the “activity change, negative = inhibition” value was inactive: -2.73%.
For `CCc1ccc(OCC(O)CN2CCN(c3ccccc3)CC2)cc1` (centres undefined), the Potency was inconclusive: 11.2 µM [inhibitor, partial curve, poor fit].
For `CCCCCn1c(CN2CCN(Cc3ccccc3)CC2)nc2c1c(=O)n(C)c(=O)n2C`, the “activity change, negative = inhibition” value was inactive: -23.9%.
For `O=c1c2cc([N+](=O)[O-])ccc2nc2n1CCCC2`, the Potency was inconclusive: 35.5 µM [inhibitor, single point].
For `COc1ccc(C(=O)Nc2cccc3ccccc23)cc1`, the “activity change, negative = inhibition” value was inactive: 16.8% [at 46.1 µM].
For `O=C(NC(=O)c1ccccc1)NC(=O)c1ccccc1`, the Potency was inconclusive: 3.98 µM [activator, full curve, poor fit].
With `CC(C)n1nccc1NC(=O)COC(=O)c1ccc(NC(N)=O)cc1` the “activity change, negative = inhibition” value was inactive: 3.66% [at 46.1 µM].
In the case of `CCc1c(C(=O)O)[nH]c2ccc(Br)cc12`, the Potency was inconclusive: 35.5 µM [inhibitor, single point].
In the case of `Cc1ccc(-c2[nH]nc(N)c2N=Nc2ccccc2C)cc1`, the Potency was active: 8.2 µM.
For `C/C(=N\OCC(=O)OC(C)C(=O)Nc1ccc(C(N)=O)cc1)c1ccc2c(c1)OCO2` (centres undefined), the Potency was inconclusive: 6.31 µM [activator, single point].
With `Cc1sc2nc(SCC(=O)NCc3ccco3)n(Cc3ccccc3)c(=O)c2c1C` the “activity change, negative = inhibition” value was inactive: -0.582%.
In the case of `Oc1ccc(-c2nnc(SCc3ccccc3)o2)cc1`, the Potency was inconclusive: 3.55 µM [activator, single point].
In the case of `CCc1ccc(CCC(=O)Nc2nccs2)o1`, the “activity change, negative = inhibition” value was inactive: 16.7%.
With `CC(C)(C)C1CCC(=NNC(=O)C(=O)NC2CCCCC2)CC1` (centres undefined) the Potency was inconclusive: 0.146 µM [activator, single point].
For `COC(=O)N/N=C/c1cn(Cc2c(Cl)cccc2Cl)c2ccccc12`, the Potency was inconclusive: 0.112 µM [inhibitor, full curve, poor fit].
With `CCOCCCNC(=S)Nc1cc(OCC)c(NC(=O)c2ccco2)cc1OCC` the “activity change, negative = inhibition” value was inactive: 5.59% [at 46.1 µM].
With `CCOC(=O)C(C(=O)OCC)N(C#N)c1nc(N(C)C)nc(N(C)C)n1` the “activity change, negative = inhibition” value was inactive: -11.9% [at 46.1 µM].
In the case of `COc1ccc(NC(=O)CSc2c3c(nc4ccc(Cl)cc24)CCCC3)cc1Cl`, the “activity change, negative = inhibition” value was inactive: -4.07% [at 46.1 µM].
In the case of `COc1ccc(-c2ccc(CCC(=O)O)o2)cc1`, the Potency was inconclusive: 3.98 µM [inhibitor, single point].
For `O=C(CN1C(=O)S/C(=C\c2ccccn2)C1=O)Nc1ccc(F)cc1`, the “activity change, negative = inhibition” value was inactive: -19.4% [at 46.1 µM].
In the case of `O=C(CSc1nc2ccc(NC(=O)c3ccccc3C(=O)O)cc2s1)Nc1ccc(F)c([N+](=O)[O-])c1`, the Potency was inconclusive: 8.91 µM [inhibitor, partial curve, poor fit].
In the case of `Cc1nnc(SCC(=O)c2ccc(Cl)cc2)n(N)c1=O`, the Potency was inconclusive: 35.5 µM [inhibitor, single point].
For `CC(OC1=CC(=O)CCC1)C(=O)c1ccccc1` (centres undefined), the Potency was inconclusive: 18.3 µM [activator, single point].
With `Cc1ccc(-n2cc(CN3CCCN(C=O)CC3)c(-c3ccc(F)cc3)n2)cc1` the Potency was inconclusive: 14.1 µM [inhibitor, single point].
With `O=C(CCCCCn1c(=S)[nH]c2cc3c(cc2c1=O)OCO3)N1CCN(c2ccc(F)cc2)CC1` the Potency was inconclusive: 4.47 µM [inhibitor, full curve, poor fit].
In the case of `CCC[N+](C)(C)C(C)C(OC(C)=O)c1ccccc1` (centres undefined), the Potency was inconclusive: 10 µM [activator, partial curve, poor fit].
With `CC(C)C(=O)O/N=C(\N)c1ccccn1` the Potency was inconclusive: 35.5 µM [activator, single point].
In the case of `COc1ccc(NC(=O)CN(C)C(=O)c2cn(-c3ccccc3)nc2-c2cccnc2)cc1`, the “activity change, negative = inhibition” value was inactive: -2.99%.
With `CCOc1cc(/C=N/Nc2nc(N3CCCC3)nc(N3CCCC3)n2)ccc1O` the Potency was inconclusive: 12.6 µM [inhibitor, single point].
In the case of `CC(=O)N1CCc2cc(S(=O)(=O)N3CCOCC3)ccc21`, the “activity change, negative = inhibition” value was inactive: 4.7%.
With `CCCN(C(=O)COC(=O)CCOc1ccc(C)cc1)c1c(N)n(Cc2ccccc2)c(=O)[nH]c1=O` the Potency was inconclusive: 12.6 µM [inhibitor, partial curve].
For `CSCCNCc1cn(-c2ccc(F)cc2F)nc1-c1ccccc1C`, the Potency was inconclusive: 35.5 µM [inhibitor, single point].
With `CCOC(=O)CN1C(=O)[C@]2(O[C@H](COc3ccccc3)CC3=C2CCC3)c2ccccc21` the Potency was inconclusive: 2.37 µM [activator, partial curve, poor fit].
For `COc1ccc(C(=O)NC(Oc2ccccc2)C(Cl)(Cl)Cl)cc1` (centres undefined), the “activity change, negative = inhibition” value was inactive: -22.2%.
In the case of `Cc1cccc(Nc2nc(C)nc(N)c2S(=O)(=O)c2ccccc2)c1`, the Potency was inconclusive: 14.1 µM [inhibitor, single point].
For `Cc1ccc(CNC(=O)CSc2c3c(nc4ccc(Cl)cc24)CCCC3)cc1`, the “activity change, negative = inhibition” value was inactive: -1.23% [at 46.1 µM].
For `Nc1c(C(=O)NCc2ccc(F)cc2)c2nc3ccccc3nc2n1CCCN1CCOCC1`, the Potency was inconclusive: 29.1 µM [inhibitor, single point].
With `CCOC(=O)CCCCCCCCC(=O)Nc1ccc(-n2[nH]c(=O)cc2C)cc1` the “activity change, negative = inhibition” value was inactive: 7.87%.
With `CCc1ccc(-n2c(N3CCN(c4ccc(F)cc4)CC3)nc3ccccc3c2=O)cc1` the Potency was inconclusive: 7.94 µM [inhibitor, single point].
With `Cc1cccc(C)c1NC(=O)c1c(C)nn(-c2ccccc2)c1Cl` the “activity change, negative = inhibition” value was inactive: -9.89%.
For `CCCCOc1ccc(-c2c(C#N)c(N)nc(SCC(N)=O)c2C#N)cc1`, the Potency was inconclusive: 1.12 µM [inhibitor, partial curve, poor fit].
For `CCN(C(=O)c1cccs1)c1nc(-c2ccc(OC)cc2)cs1`, the Potency was inconclusive: 10 µM [activator, single point].
For `CCN(CC)c1ccc(N=Cc2c(O)n(-c3ccccc3C)c(=O)[nH]c2=O)cc1`, the Potency was “inactive”.
With `COCCCNC(=O)c1ccc(Cn2c(=O)c3ccccc3n(Cc3cc(C)ccc3C)c2=O)cc1` the Potency was inconclusive: 29.1 µM [inhibitor, single point].
With `Cc1ccccc1C(=O)Oc1cc(N)n(S(C)(=O)=O)n1` the “activity change, negative = inhibition” value was inactive: -4.02% [at 46.1 µM].
For `CN(C)c1cccc(-c2nnc(SCCCC#N)o2)c1`, the Potency was inconclusive: 0.73 µM [activator, single point].
In the case of `COc1ccc(C(=O)N2CCN(C(=O)COc3ccccc3)CC2)cc1OC`, the “activity change, negative = inhibition” value was inactive: 1.52% [at 46.1 µM].
For `CC(C)OC(=O)/C(=C/c1ccco1)c1ccccc1`, the “activity change, negative = inhibition” value was inactive: -19.5% [at 14.2 µM].
With `Cc1ccc2c(Cl)c(C(=O)Nc3cccnc3)sc2c1` the Potency was inconclusive: 22.4 µM [inhibitor, single point].
For `CN(C)c1cccc(C(=O)OCc2cc(=O)oc3cc(O)ccc23)c1`, the Potency was inconclusive: 3.16 µM [activator, single point].
For `COc1ccccc1NC(=O)CSc1nnc(Cn2nnc(-c3ccccc3)n2)n1-c1ccccc1`, the Potency was inconclusive: 29.1 µM [inhibitor, single point].
With `COc1ccc(C(=O)Oc2c(C)occc2=O)cc1OC` the “activity change, negative = inhibition” value was inactive: 4.84%.
In the case of `CCOc1ccc2nc(SCC(=O)NCc3ccc4c(c3)OCO4)[nH]c2c1`, the “activity change, negative = inhibition” value was inactive: 8.53%.
With `Cc1ccc(-c2nc3ccccc3c(=O)n2CCCN2CCOCC2)cc1` the “activity change, negative = inhibition” value was inactive: 0.802%.
With `COc1ccc(-c2nc3ccccc3s2)cc1NC(=O)c1cc(OC)c(OC)c(OC)c1` the Potency was inconclusive: 10 µM [activator, partial curve].
In the case of `CCN(CC)c1nc(Nc2ccc(Cl)cc2)nc(OCC#N)n1`, the Potency was inconclusive: 8.91 µM [inhibitor, partial curve].
In the case of `NC(=O)C1(N2CCCCC2)CCN(C(=O)CSc2nc3ccccc3s2)CC1`, the Potency was inconclusive: 5.62 µM [inhibitor, single point].
With `CCOc1ccc(-c2cc(CCCC(=O)NCCCOC)no2)cc1` the Potency was inconclusive: 14.6 µM [inhibitor, partial curve, poor fit].
In the case of `COc1cccc(-c2ccc(SCC(=O)NCCc3ccccc3)nn2)c1`, the “activity change, negative = inhibition” value was inactive: 6.8% [at 46.1 µM].
